The list shows a part of the results.

Amino acid sequences for entries named in this document (tags omitted).
UniProt Q0JBA9, entry or part of it: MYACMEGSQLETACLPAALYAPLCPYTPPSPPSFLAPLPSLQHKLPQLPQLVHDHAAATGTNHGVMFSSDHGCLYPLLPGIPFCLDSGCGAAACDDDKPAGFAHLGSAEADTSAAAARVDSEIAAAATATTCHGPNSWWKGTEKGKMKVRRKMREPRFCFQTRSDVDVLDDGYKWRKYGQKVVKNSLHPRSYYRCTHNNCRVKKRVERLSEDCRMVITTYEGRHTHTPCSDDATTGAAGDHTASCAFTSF

The assay addresses OsWRKY34 (Oryza sativa, UniProt Q0JBA9 1-250). Nature of the assay: protein-binding microarray (RPBM); PBS, 2% BSA, 51.3 ng/ul salmon testes DNA, 50 uM zinc acetate, 200 nM TF, 25 C, 1 h; high values mean tight binding. To be noted: protein: recombinant; tags: N-terminal polyhistidine and DsRed monomer fusion (pET32a); label: CyDye5-dUTP incorporated in the synthesized complementary strand; 3' TTTTT single-stranded linker to array surface; dsDNA, one strand shown. A digest of the protocol:
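Using Ni–NTA, transcription factors fused N-terminally to polyhistidine and DsRed were purified after expression in E. coli BL21-CodonPlus. These were incubated at 200 nM with a blocked, double-stranded custom Agilent array for 1 h at 25 °C in a buffer containing 50 µM zinc acetate, and the array was washed. The binding signal is per-feature fluorescence intensity (arbitrary units) on an Axon 4000B scanner.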
In the case of “TCATTTCTTCCCGATCTGTCCCGTCCCGTCCCGTCCCGTCCGGAGTCACCTAGTGCAG”, the binding signal is 11000 fluorescence intensity (a.u.).

“GGTATTTTCAATAGTGTTTAGTGTGTATTTGGTTTGAAGCCGGAGTCACCTAGTGCAG”: the binding signal is 9520 fluorescence intensity (a.u.).

With “CCGCTCACCTTGCCTCGTTACCCACCTCTTGTGGCTCACCCGGAGTCACCTAGTGCAG”, the binding signal was 8720 fluorescence intensity (a.u.).

As to “TCATCCCGTTGATATATATTCTGTCATTATAAGTTTCATACGGAGTCACCTAGTGCAG”, the binding signal is 8710 fluorescence intensity (a.u.).

Take “CCCCACGTCGGAGCTCATTGCCAGCGGCCGCGTCCTCCTTCGGAGTCACCTAGTGCAG”: the binding signal is 9600 fluorescence intensity (a.u.).

As to “CGCTTATTCTTATACTTATCAGCTAAAATTTAAATTTTCACGGAGTCACCTAGTGCAG”, the binding signal was 10900 fluorescence intensity (a.u.).

Turning to “ATTCGAAAGTCTAAGTTGTATTTTCTCCGGTTCCATATATCGGAGTCACCTAGTGCAG”, the binding signal is 9350 fluorescence intensity (a.u.).

Take “GAGTTGTAAAGCTTTTGACCGGTTTCTAATCAACACATACCGGAGTCACCTAGTGCAG”: the binding signal is 8350 fluorescence intensity (a.u.).

As for “CAGCCACCATCTCAGCCCAAGTGCGTCTGTCCGCTGTGTTCGGAGTCACCTAGTGCAG”, the binding signal is 8380 fluorescence intensity (a.u.).

For “CATCGCGACCATCCGTGGTTCTCTAAAATTTTGACCATAACGGAGTCACCTAGTGCAG”, the binding signal was 8360 fluorescence intensity (a.u.).

In the case of “GGTTTCCCAACTTGTGATTTTTTTGTCCATTTTCTGGATTCGGAGTCACCTAGTGCAG”, the binding signal was 8760 fluorescence intensity (a.u.).

As to “TTCACTGTCGGTCGCCTCTACCACCATCAATTGGTCTTCTCGGAGTCACCTAGTGCAG”, the binding signal was 8380 fluorescence intensity (a.u.).

For the sequence “ACTACATACCCTGTTTTTTTTTTCTTTTTACTCTTTGATGCGGAGTCACCTAGTGCAG”, the binding signal is 9560 fluorescence intensity (a.u.).

In the case of “GCGTCCAGCCGCGGCCCGCCCGACCACCTTTTCACCTCCGCGGAGTCACCTAGTGCAG”, the binding signal is 8460 fluorescence intensity (a.u.).

As to “GTTGACTTTTTTAAACATGTTGGACCGTTCGTCTTATTCACGGAGTCACCTAGTGCAG”, the binding signal was 9150 fluorescence intensity (a.u.).

Turning to “AAAACATTTCCCTAGCCATTAATCTCACCGTCATTCTCTTCGGAGTCACCTAGTGCAG”, the binding signal was 9480 fluorescence intensity (a.u.).

Turning to “GGGCGGGCGGGCTCGAGGTTGTGGTGGGGCGTGTGGCAGGCGGAGTCACCTAGTGCAG”, the binding signal is 18200 fluorescence intensity (a.u.).

As for “GGCCCACATGTAGATTACACTACCGTTCCAGACCAACATACGGAGTCACCTAGTGCAG”, the binding signal was 8240 fluorescence intensity (a.u.).

For the sequence “GTCGATTTTCTTGGTTCTTTGTGCCCTAGACTGCTACCTGCGGAGTCACCTAGTGCAG”, the binding signal is 10500 fluorescence intensity (a.u.).

Take “ATGTACTCGTGTGGTTTCCGATGTCAATTTCCATAGCGTTCGGAGTCACCTAGTGCAG”: the binding signal is 8530 fluorescence intensity (a.u.).

As for “CGCATTCATGACTTCTTGTTTGTTTTAACCTCCATATGTTCGGAGTCACCTAGTGCAG”, the binding signal was 10100 fluorescence intensity (a.u.).

As for “TTTCTGCATGAAATTAGTGGATCTGTGTTGTTTTCGGTGTCGGAGTCACCTAGTGCAG”, the binding signal is 8140 fluorescence intensity (a.u.).

For “GGGAGGAGTGGGAGGAGGAGGGCGATAGGGAGAGGGAGGACGGAGTCACCTAGTGCAG”, the binding signal is 8800 fluorescence intensity (a.u.).

Take “ATCTGTTCCTTGTTGATCTACTAGAATATTTCTCCTTTTTCGGAGTCACCTAGTGCAG”: the binding signal was 8400 fluorescence intensity (a.u.).

Turning to “AAAATCACTCTACCTACTGTACTCTACCTACTGTTACTTTCGGAGTCACCTAGTGCAG”, the binding signal is 13200 fluorescence intensity (a.u.).

As to “ATGTTTTTCTTTTTCTTTTTGATTTTTAAACCAAATTGTTCGGAGTCACCTAGTGCAG”, the binding signal was 10000 fluorescence intensity (a.u.).

With “GGATTACATGGAACCTGATACTATTTGCTTGACCATATGTCGGAGTCACCTAGTGCAG”, the binding signal was 8380 fluorescence intensity (a.u.).

On to “AATTGATTTAATTACTGGGTATTTTATGTTAGTGGACTTCCGGAGTCACCTAGTGCAG”, for which the binding signal was 8860 fluorescence intensity (a.u.).

Consider “TTTTTCTTTTTATTGTCTTGTTCTCGTGCGTGTTGAAAAACGGAGTCACCTAGTGCAG”, for which the binding signal is 20300 fluorescence intensity (a.u.).

With “CCTTACAAGACATCAGTGCTCGACTACATATGTACTACTACGGAGTCACCTAGTGCAG”, the binding signal is 8460 fluorescence intensity (a.u.).

“ACTTTCCTCTCGGAGTATCGGTAATCTTTCGTTACGTTTTCGGAGTCACCTAGTGCAG”: the binding signal is 8280 fluorescence intensity (a.u.).

In the case of “GCATGCCAACACACCTACGTTCGCTTCATAACTCCACAAGCGGAGTCACCTAGTGCAG”, the binding signal is 8800 fluorescence intensity (a.u.).

For “ACTTCCAAACCGTCCAGCATACCGCACCAACCCTGAAGAACGGAGTCACCTAGTGCAG”, the binding signal is 8200 fluorescence intensity (a.u.).

“GTTCTCACGGCTTAGTTTTCTGCTTTGCAGGCTTCAACAGCGGAGTCACCTAGTGCAG”: the binding signal is 8170 fluorescence intensity (a.u.).

For the sequence “GATGGAGAGGCTGTTGGAGTAAATAACTAGTTTGACTAGCCGGAGTCACCTAGTGCAG”, the binding signal is 8630 fluorescence intensity (a.u.).

Take “TATCTACAAATTTAGTCAAACTTAAAGCAGTTTGACTTTACGGAGTCACCTAGTGCAG”: the binding signal is 11500 fluorescence intensity (a.u.).

In the case of “CGCTCCTACACCGTCCGCCATAGCGATTCCCTTCCATCTCCGGAGTCACCTAGTGCAG”, the binding signal is 8780 fluorescence intensity (a.u.).

With “TAGGTTGTTTATTCTATCTTTTTTTGTTCTTATCAAACTACGGAGTCACCTAGTGCAG”, the binding signal is 8330 fluorescence intensity (a.u.).

For the sequence “GCGTTCCGGGAATTCTTCAACTGGGTCACACCACACGTCTCGGAGTCACCTAGTGCAG”, the binding signal was 10200 fluorescence intensity (a.u.).

For “GCATGAACCTCTGTCACCCTGTGAGACCACTCCAAACCTTCGGAGTCACCTAGTGCAG”, the binding signal is 8450 fluorescence intensity (a.u.).

As to “CAAAGGCGGCAACGGCGGGGATGTGTGGGGAGGCGGCGGACGGAGTCACCTAGTGCAG”, the binding signal was 9250 fluorescence intensity (a.u.).

As for “ACTAGACGTTTTATTTGTTTTGTTGATTATAATTAAACACCGGAGTCACCTAGTGCAG”, the binding signal is 8270 fluorescence intensity (a.u.).
